# According to PubChem BioAssay AID445 (National Center for Advancing Translational Sciences (NCATS), 2006):
# This is one part of the list. These are further read-outs of the screen, such as a control signal, another cell line or another target. No call is given for them. Most of these compounds were active or inconclusive in the main read-out, so they are no random draw. The note in brackets gives the kind of curve behind each potency; many fits are weak.
# Assay: IkB Signaling
# Conditions: ABC-DLBCL IkBa-CBG/CBR dual luciferase ratio (green luciferase fused to IkBa over red control in OCI-Ly3 lymphoma cells), 4 h
# How it was run: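 In this assay, an IκBα–CBG68 fusion accumulates when IKK-driven degradation is blocked; native CBR normalizes for cell number. OCI-Ly3 cells were treated 4 h with compound and doxycycline, then green and red light read after Chroma-Glo addition.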
# [1] = measured here: control luc red channel unless noted
# [2] = measured here: IkB-luc green channel
# [3] = measured here: control luc red channel
structure (smiles),measurement,setting,value
Cc1ccc(C(=O)CC2(O)C(=O)N(CCc3ccccc3)c3ccc(Br)cc32)cc1 (stereo not given),AC50,[1],"25.1 µM [falling, partial curve]"
CCn1c2ccccc2c2cc(Nc3cc(C)nc4ncnn34)ccc21,AC50,[2],"0.794 µM [rising, full curve]"
same,AC50,[3],"0.316 µM [rising, full curve]"
CCOC(=O)c1cc2c(=O)n3ccccc3nc2n(CCCOC)c1=NC(=O)c1cc2ccccc2o1,AC50,[1],"12.6 µM [falling, partial curve]"
Cc1ccc2oc(=O)c3cnn(CC(=O)N4CCc5ccccc5C4)c3c2c1,AC50,[1],"15.8 µM [falling, partial curve]"
Cc1ccc(CCNC(=O)c2cc3ccccn3n2)cc1,AC50,[1],"39.8 µM [falling, single point]"
Cc1ccc(Cn2c(C)c3cnn(CC(=O)N4CCN(c5cc(C)ccc5C)CC4)c(=O)c3c2C)cc1,AC50,[1],"7.94 µM [falling, partial curve]"
COc1cccc(-n2c(C)nc3c(cnn3-c3ccc(C)c(C)c3)c2=O)c1,AC50,[1],"31.6 µM [falling, single point]"
O=c1oc2ccc(Cl)cc2cc1-c1nc(-c2cccs2)no1,AC50,[1],"0.398 µM [falling, full curve]"
COc1ccc(NC(=O)Cn2c(=O)n(Cc3ccco3)c(=O)c3sc4ccccc4c32)cc1Cl,AC50,[1],"25.1 µM [falling, single point]"
CC(C)c1ccc(NC(=O)CN2C(=O)C3(SCC(=O)N3c3ccc(F)cc3)c3ccccc32)cc1 (stereo not given),AC50,[1],"15.8 µM [falling, partial curve]"
O=C(Nc1ccc(Cl)cc1)c1ccc2c(c1)N(Cc1ccccc1)CCS2,AC50,[1],"25.1 µM [falling, single point]"
CCN(C(=O)CSc1nc2ccccc2nc1Cc1ccccc1OC)c1ccccc1,AC50,[1],"39.8 µM [falling, single point]"
CCCC12CN3CC(CCC)(CN(C1)C3c1c[nH]c3ccc(OC)cc13)C2=O (stereo not given),AC50,[1],"12.6 µM [falling, partial curve]"
Cc1nc(CC(=O)Nc2ccc(C(N)=O)cc2)cs1,AC50,[1],"39.8 µM [falling, single point]"
CCSC1=NC2(CCN(C(=O)NC3CCCCC3)CC2)N=C1c1ccc(OC)cc1,AC50,[1],"25.1 µM [falling, single point]"
CCOc1ccccc1CNC(=O)CCc1cn(C)c2ccccc12,AC50,[1],"25.1 µM [falling, single point]"
CC(C(=O)NCc1ccccc1)n1ccc2cc(S(=O)(=O)N3CCCC3)ccc21 (stereo not given),AC50,[1],"12.6 µM [falling, partial curve]"
CCOc1ccc(S(=O)(=O)Nc2cc3c(C(=O)OCc4ccccc4)c(C)oc3c3ccccc23)cc1,AC50,[1],"25.1 µM [falling, single point]"
COc1ccc2c(c1)c1c(c(=O)n(-c3cc(Cl)ccc3C)c(=O)n1Cc1ccc(F)cc1)n2C,AC50,[1],"10 µM [rising, partial curve, poor fit]"
Cc1c(Cl)cccc1-n1ncc(C(=O)NC2CCCC2)c1C1CCN(C(=O)OC(C)(C)C)CC1,AC50,[1],"15.8 µM [falling, partial curve]"
Cc1ccc(NC(=O)N2CCN3CCCCC3C2)cc1C (stereo not given),AC50,[1],"10 µM [falling, single point]"
COc1ccccc1C(=O)OCc1cc(=O)n2c(C)csc2n1,AC50,[1],"12.6 µM [falling, partial curve]"
CCCOC(=O)c1c(-c2ccccc2)c(-c2ccccc2)nn(C)c1=O,AC50,[1],"20 µM [falling, single point]"
Cc1cc(C)c(-c2n[nH]c3c2C(c2ccccc2F)N(CCO)C3=O)c(O)c1 (stereo not given),AC50,[1],"25.1 µM [falling, single point]"
Cc1ccc(-n2nnnc2SCC(=O)NCCC2=CCCCC2)c(C)c1,AC50,[1],"39.8 µM [falling, single point]"
N#C/C(=C(/O)CN1C(=O)c2ccccc2C1=O)c1nc2ccccc2[nH]1,AC50,[1],"25.1 µM [falling, partial curve]"
COC(=O)C1CCN(C(=O)COc2cc3sc(C)nc3c3sccc23)CC1,AC50,[1],"6.31 µM [falling, partial curve]"
Cc1ccc(-n2nc3c(N4CCCC(C(=O)NCc5ccccc5C)C4)nnc(C)c3c2C)cc1 (stereo not given),AC50,[1],"10 µM [falling, partial curve]"
CC(=O)NC(c1ccco1)c1ccc2cccnc2c1O (stereo not given),AC50,[1],"15.8 µM [falling, partial curve]"
Cc1ccc2scc(N3CCCC(C)C3)c(=O)c2c1 (stereo not given),AC50,[1],"1 µM [falling, partial curve]"
CCOc1ccc2c(c1)c(=O)c(C(=O)c1ccccc1)cn2Cc1ccccc1F,AC50,[1],"39.8 µM [falling, partial curve]"
Cc1ccc2nc(SCC(=O)Nc3c(C)n(C)n(-c4ccccc4)c3=O)[nH]c2c1,AC50,[1],"7.94 µM [falling, partial curve]"
COc1ccc(OC)c(CNS(=O)(=O)c2cc(-c3onc(C)c3C)ccc2C)c1,AC50,[1],"3.98 µM [falling, full curve]"
CCN(CC)C(=O)c1sc2c(c1C)c(=O)n(-c1ccc(C)c(C)c1)c(=O)n2CC(=O)Nc1ccc(OC)cc1OC,AC50,[1],"3.16 µM [rising, partial curve]"
COc1ccc(N2CCN(CCCNC(=O)c3nnc(Cc4ccccc4Cl)o3)CC2)cc1,AC50,[1],"39.8 µM [falling, single point]"
Cc1cc(C)n2c(Nc3ccc4c(c3)OCCO4)c(-c3ccccc3)nc2n1,AC50,[1],"12.6 µM [falling, partial curve]"
COc1ccc(/C=C/C(=O)Nc2cc(-c3nc4ccccc4o3)ccc2OC)cc1,AC50,[1],"0.316 µM [falling, full curve]"
Cc1ccc(S(=O)(=O)c2[nH]c(-c3ccccc3)nc2SC(C)C(=O)O)cc1 (stereo not given),AC50,[1],"20 µM [falling, partial curve]"
COc1cc2ncnc(Nc3cccc(Br)c3)c2cc1OC,AC50,[1],"39.8 µM [falling, partial curve, poor fit]"
COc1cccc(C2=CC(c3cccc(OC)c3OC(F)F)n3nnnc3N2)c1 (stereo not given),AC50,[1],"15.8 µM [falling, partial curve]"
O=C(C1CC1)N1CCc2cc(S(=O)(=O)N(CCO)Cc3ccccc3)ccc21,AC50,[1],"25.1 µM [falling, single point]"
COc1ccc(CNC(=O)COC(=O)c2n[nH]c3ccccc23)cc1,AC50,[1],"15.8 µM [falling, partial curve]"
N#Cc1nc(-c2ccc(OCc3ccccc3Cl)cc2)oc1NCCCn1ccnc1,AC50,[1],"25.1 µM [falling, partial curve]"
COc1cc2ccccc2cc1C(=O)N1CCN(c2nc3c(F)cccc3s2)CC1,AC50,[1],"31.6 µM [falling, partial curve]"
Cn1c(COc2ccccc2C(C)(C)C)nc2ccccc21,AC50,[1],"20 µM [falling, single point]"
O=C(CSc1nnc(Cc2cccs2)n1Cc1ccco1)Nc1cc(Cl)cc(Cl)c1,AC50,[1],"6.31 µM [falling, partial curve]"
CC(C)(CC(=O)NCc1ccc(Cl)cc1Cl)CC1=NS(=O)(=O)c2ccccc2N1,AC50,[1],"3.16 µM [falling, partial curve]"
CN(C(=O)c1ccccc1)c1nc2ccccc2s1,AC50,[1],"31.6 µM [falling, partial curve]"
COc1ccc(-c2cc(C(=O)NC(C)C)no2)cc1,AC50,[1],"3.98 µM [falling, full curve]"
Cc1ccc(C(=O)N2CCN(c3cccc(Cl)c3)CC2)cc1-n1c(C)nc2cccnc21,AC50,[1],"20 µM [falling, single point]"
CCc1ccccc1N(CC)C(=O)C(=O)Nc1ccc2nc3n(c(=O)c2c1)CCCCC3,AC50,[1],"15.8 µM [falling, partial curve]"
COc1cc(NC(=O)COc2cccc(OC)c2)cc(OC)c1,AC50,[1],"7.94 µM [falling, partial curve]"
FC(F)(F)c1cccc(N2CCN(c3nc4ccccc4n4cnnc34)CC2)c1,AC50,[1],"7.94 µM [falling, partial curve]"
CC(=O)c1sc(Nc2nc3ccc(F)cc3s2)nc1C,AC50,[2],"6.31 µM [rising, single point]"
same,AC50,[3],"20 µM [falling, single point]"
CCS(=O)(=O)N1CCc2cc(C(=O)NC(C)c3ccccc3)ccc21 (stereo not given),AC50,[1],"10 µM [falling, partial curve]"
CCOC(=O)N1CCC(N(C(=O)Nc2ccc(Cl)c(Cl)c2)C(C)CC)CC1 (stereo not given),AC50,[1],"12.6 µM [falling, partial curve]"
O=c1c2sc3ccccc3c2n(Cc2cccc(C(F)(F)F)c2)c(=O)n1-c1ccccc1,AC50,[1],"1 µM [rising, full curve, poor fit]"
O=C1CC(c2ccccc2)Cc2[nH]c(=O)c(-c3nc(-c4ccc(Cl)c(Cl)c4)cs3)cc21 (stereo not given),AC50,[1],"10 µM [falling, partial curve]"
COc1ccc(Cl)cc1NC(=O)C(=O)NCc1ccc(Cl)cc1,AC50,[1],"2 µM [falling, full curve]"
COCCNS(=O)(=O)c1cc(-c2nn3c(C)nnc3c3ccccc23)ccc1C,AC50,[1],"15.8 µM [rising, partial curve] [measured here: IkB-luc green channel]"
Cc1ccc(C(=O)c2sc(Nc3ccc(F)cc3)c(C#N)c2N)cc1,AC50,[1],"3.16 µM [rising, full curve]"
COc1cccc(NC(=O)CN2C=NS(=O)(=O)c3ccccc32)c1,AC50,[1],"1 µM [falling, full curve, poor fit]"
Cc1cccc(CCn2c(=O)c3ccccc3n(Cc3ccccc3C)c2=O)c1,AC50,[1],"10 µM [falling, partial curve]"

# Another view of some results above.
structure (smiles) | measurement | setting | value
Cc1ccc(NC(=O)N2CCN3CCCCC3C2)cc1C (stereo not given) | AC50 | [1] | 10 µM [falling, single point]
COc1ccccc1C(=O)OCc1cc(=O)n2c(C)csc2n1 | AC50 | [1] | 12.6 µM [falling, partial curve]
CCCOC(=O)c1c(-c2ccccc2)c(-c2ccccc2)nn(C)c1=O | AC50 | [1] | 20 µM [falling, single point]
Cc1cc(C)c(-c2n[nH]c3c2C(c2ccccc2F)N(CCO)C3=O)c(O)c1 (stereo not given) | AC50 | [1] | 25.1 µM [falling, single point]
Cc1ccc(-n2nnnc2SCC(=O)NCCC2=CCCCC2)c(C)c1 | AC50 | [1] | 39.8 µM [falling, single point]
N#C/C(=C(/O)CN1C(=O)c2ccccc2C1=O)c1nc2ccccc2[nH]1 | AC50 | [1] | 25.1 µM [falling, partial curve]
COC(=O)C1CCN(C(=O)COc2cc3sc(C)nc3c3sccc23)CC1 | AC50 | [1] | 6.31 µM [falling, partial curve]
Cc1ccc(-n2nc3c(N4CCCC(C(=O)NCc5ccccc5C)C4)nnc(C)c3c2C)cc1 (stereo not given) | AC50 | [1] | 10 µM [falling, partial curve]
CC(=O)NC(c1ccco1)c1ccc2cccnc2c1O (stereo not given) | AC50 | [1] | 15.8 µM [falling, partial curve]
Cc1ccc2scc(N3CCCC(C)C3)c(=O)c2c1 (stereo not given) | AC50 | [1] | 1 µM [falling, partial curve]
CCOc1ccc2c(c1)c(=O)c(C(=O)c1ccccc1)cn2Cc1ccccc1F | AC50 | [1] | 39.8 µM [falling, partial curve]
Cc1ccc2nc(SCC(=O)Nc3c(C)n(C)n(-c4ccccc4)c3=O)[nH]c2c1 | AC50 | [1] | 7.94 µM [falling, partial curve]
COc1ccc(OC)c(CNS(=O)(=O)c2cc(-c3onc(C)c3C)ccc2C)c1 | AC50 | [1] | 3.98 µM [falling, full curve]
CCN(CC)C(=O)c1sc2c(c1C)c(=O)n(-c1ccc(C)c(C)c1)c(=O)n2CC(=O)Nc1ccc(OC)cc1OC | AC50 | [1] | 3.16 µM [rising, partial curve]
COc1ccc(N2CCN(CCCNC(=O)c3nnc(Cc4ccccc4Cl)o3)CC2)cc1 | AC50 | [1] | 39.8 µM [falling, single point]
